In PubChem BioAssay AID220 (DTP/NCI, 2004):
The list shows only some results of the screen, not a fair sample: it gathers tests that were run many times, whatever their T/C, doses with no T/C, and many T/C values between a quarter and a half above the control. Other doses and runs of a compound stand elsewhere. T/C gives the treated animals as a percentage of the vehicle group. Schedules are NCI's codes, read here as Q, the interval in days (D) or hours (H), X, the number of doses. Some entries were tested several times; the results are listed from low to high. Some T/C values are negative: the treated tumours shrank. Some T/C values are followed by the survivors on the day toxicity was checked, most often the fifth; without a count, all were alive then. Some doses have a count of surviving animals in place of a T/C: the source holds a T/C of zero for them, seemingly a mark for toxic or unscored doses. Counts of survivors are from the toxicity check (mostly the fifth day) where no day follows; animals may have died later. Some structures stand for samples that the source files as different forms (salt, stereo form or complex); doses refer to the form tested.

Tested on: CD8F1 mice, subcutaneous mammary adenocarcinoma, T/C%
Assay: NCI In Vivo Anticancer Drug Screen. Data for tumor model Mammary Adenocarcinoma CD8F1 (subcutaneous) in CD8F1
Conditions: higher T/C = larger tumour
In short: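 Ratio of treated to vehicle-control outcome, based on either survival or tumor size, in mice bearing transplantable tumors given the test compound.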

In the case of COc1cc(NCc2ccc3nc(N)nc(N)c3c2C)cc(OC)c1OC, the survivor count (T/C endpoint: median tumor weight (est.), dose: 80.0 mg/kg/injection, schedule: Q07DX005 (ip), vehicle: saline) is reported as 2 of 10 on day 30, the survivor count (T/C endpoint: median tumor weight (est.), dose: 93.3 mg/kg/injection, schedule: Q04DX007 (ip), vehicle: water) is reported as 2 of 8 on day 30 and the survivor count (T/C endpoint: median tumor weight (est.), dose: 106.7 mg/kg/injection, schedule: Q04DX007 (ip), vehicle: water) is reported as 0 of 5 on day 30. The survivor count (T/C endpoint: median tumor weight (est.), dose: 120.0 mg/kg/injection, schedule: Q07DX005 (ip), vehicle: saline) was 0 of 10 on day 30, the survivor count (T/C endpoint: median tumor weight (est.), dose: 120.0 mg/kg/injection, schedule: Q07DX005 (ip), vehicle: suspension in saline) was 0 of 10 on day 30 and the survivor count (T/C endpoint: median tumor weight (est.), dose: 140.0 mg/kg/injection, schedule: Q04DX007 (ip), vehicle: water) was 0 of 8 on day 30. For the same compound, the survivor count (T/C endpoint: median tumor weight (est.), dose: 148.0 mg/kg/injection, schedule: Q07DX005 (ip), vehicle: water) was 4 of 10 on day 30, the survivor count (T/C endpoint: median tumor weight (est.), dose: 157.0 mg/kg/injection, schedule: Q07DX005 (ip), vehicle: water) was 0 of 10 on day 30 and the survivor count (T/C endpoint: median tumor weight (est.), dose: 160.0 mg/kg/injection, schedule: Q04DX007 (ip), vehicle: water) was 0 of 8 on day 30. For the same compound, the survivor count (T/C endpoint: median tumor weight (est.), dose: 180.0 mg/kg/injection, schedule: Q04DX007 (ip), vehicle: water) was 5 of 8 on day 30, the survivor count (T/C endpoint: median tumor weight (est.), dose: 180.0 mg/kg/injection, schedule: Q07DX005 (ip), vehicle: saline) was 0 of 10 on day 30 and the survivor count (T/C endpoint: median tumor weight (est.), dose: 180.0 mg/kg/injection, schedule: Q07DX005 (ip), vehicle: suspension in saline) was 0 of 10 on day 30. The survivor count (T/C endpoint: median tumor weight (est.), dose: 180.0 mg/kg/injection, schedule: Q07DX005 (ip), vehicle: water) was 0 of 10 on day 30, 2 of 10 on day 30, 6 of 10 on day 30, the survivor count (T/C endpoint: median tumor weight (est.), dose: 210.0 mg/kg/injection, schedule: Q04DX007 (ip), vehicle: water) was 0 of 8 on day 30 and the survivor count (T/C endpoint: median tumor weight (est.), dose: 222.0 mg/kg/injection, schedule: Q07DX005 (ip), vehicle: water) was 0 of 10 on day 30. For the same compound, the survivor count (T/C endpoint: median tumor weight (est.), dose: 236.0 mg/kg/injection, schedule: Q07DX005 (ip), vehicle: water) was 0 of 10 on day 30, the survivor count (T/C endpoint: median tumor weight (est.), dose: 240.0 mg/kg/injection, schedule: Q04DX007 (ip), vehicle: water) was 0 of 8 on day 30 and the survivor count (T/C endpoint: median tumor weight (est.), dose: 240.0 mg/kg/injection, schedule: Q07DX005 (ip), vehicle: sodium bicarbonate) was 1 of 10 on day 30. For the same compound, the survivor count (T/C endpoint: median tumor weight (est.), dose: 270.0 mg/kg/injection, schedule: Q07DX005 (ip), vehicle: water) was 5 of 10 on day 30, the survivor count (T/C endpoint: median tumor weight (est.), dose: 334.0 mg/kg/injection, schedule: Q07DX005 (ip), vehicle: water) was 0 of 10 on day 30 and the survivor count (T/C endpoint: median tumor weight (est.), dose: 354.0 mg/kg/injection, schedule: Q07DX005 (ip), vehicle: water) was 0 of 10 on day 30.
For C=CCNc1nc2c(s1)CCc1cc(OC)c(OC)cc1-2, the survivor count (T/C endpoint: median tumor weight (est.), dose: 400.0 mg/kg/injection, schedule: Q07DX005 (ip), vehicle: saline with Tween-80) was 5 of 10 on day 30.
With O=C(C1CO1)C(Cl)(Cl)Cl (centres undefined) the survivor count (T/C endpoint: median tumor weight change, dose: 31.0 mg/kg/injection, schedule: Q01DX001 (ip), vehicle: saline) was 4 of 10 on day 31, the survivor count (T/C endpoint: median tumor weight change, dose: 62.0 mg/kg/injection, schedule: Q01DX001 (ip), vehicle: saline) was 3 of 10 on day 29 and 4 of 10 on day 31 and the T/C (T/C endpoint: median tumor weight change, dose: 62.5 mg/kg/injection, schedule: Q01DX001 (ip), vehicle: saline, evaluated on day 32) was 131 % of control. The survivor count (T/C endpoint: median tumor weight change, dose: 125.0 mg/kg/injection, schedule: Q01DX001 (ip), vehicle: saline) was 1 of 10 on day 29, the survivor count (T/C endpoint: median tumor weight change, dose: 250.0 mg/kg/injection, schedule: Q01DX001 (ip), vehicle: saline) was 0 of 10 on day 29 and 0 of 10 on day 32 and the survivor count (T/C endpoint: median tumor weight change, dose: 500.0 mg/kg/injection, schedule: Q01DX001 (ip), vehicle: saline) was 0 of 10 on day 29 and 0 of 10 on day 32. The survivor count (T/C endpoint: median tumor weight change, dose: 1000.0 mg/kg/injection, schedule: Q01DX001 (ip), vehicle: saline) was 0 of 10 on day 29 and 0 of 10 on day 32.
Nc1ncnc2c1ccn2C1OC(CO)C(O)C1O (centres undefined) was tested, and the T/C (T/C endpoint: mean tumor weight, dose: 2.0 mg/kg/injection, schedule: Q07DX005 (ip), vehicle: saline, evaluated on day 36) was 130 % of control, the T/C (T/C endpoint: median tumor weight (est.), dose: 0.5 mg/kg/injection, schedule: Q07DX005 (ip), vehicle: Klucel (hydroxypropylcellulose) (HPC), evaluated on day 30) was 149 % of control and the survivor count (T/C endpoint: median tumor weight (est.), dose: 16.0 mg/kg/injection, schedule: Q07DX005 (ip), vehicle: Klucel (hydroxypropylcellulose) (HPC)) was 0 of 10 on day 30.
For Cc1ncc([N+](=O)[O-])n1CCSC(N)=O, the T/C (T/C endpoint: median tumor weight (est.), dose: 50.0 mg/kg/injection, schedule: Q07DX005 (ip), vehicle: saline with Tween-80, evaluated on day 32) was 132 % of control [9 of 10 alive], the T/C (T/C endpoint: median tumor weight (est.), dose: 100.0 mg/kg/injection, schedule: Q07DX005 (ip), vehicle: saline with Tween-80, evaluated on day 30) was 139 % of control and the T/C (T/C endpoint: median tumor weight (est.), dose: 400.0 mg/kg/injection, schedule: Q07DX005 (ip), vehicle: saline with Tween-80, evaluated on day 32) was 128 % of control [9 of 10 alive].
For C/C=C/c1cc2n(c1)C(=O)c1cc(OC3OC(C)C(NC)C(C)(O)C3O)c(C)c(O)c1NC2O (centres undefined), the T/C (T/C endpoint: median tumor weight (est.), dose: 2.0 micrograms/kg/injection, schedule: Q07DX005 (ip), vehicle: saline, evaluated on day 30) was 135 % of control [9 of 10 alive on day 30], the survivor count (T/C endpoint: median tumor weight (est.), dose: 4.0 micrograms/kg/injection, schedule: Q07DX005 (ip), vehicle: saline) was 5 of 10 on day 30 and the survivor count (T/C endpoint: median tumor weight (est.), dose: 8.0 micrograms/kg/injection, schedule: Q07DX005 (ip), vehicle: saline) was 0 of 10 on day 30. The survivor count (T/C endpoint: median tumor weight (est.), dose: 16.0 micrograms/kg/injection, schedule: Q07DX005 (ip), vehicle: saline) was 0 of 10 on day 30 and the survivor count (T/C endpoint: median tumor weight (est.), dose: 32.0 micrograms/kg/injection, schedule: Q07DX005 (ip), vehicle: saline) was 0 of 10 on day 30.
For O=C([CH-]C(=O)C(F)(F)F)c1ccccc1.O=C([CH-]C(=O)C(F)(F)F)c1ccccc1.O=C([CH-]C(=O)C(F)(F)F)c1ccccc1.O=C([CH-]C(=O)C(F)(F)F)c1ccccc1.[Eu+3].c1ccncc1, the T/C (T/C endpoint: median tumor weight (est.), dose: 200.0 mg/kg/injection, schedule: Q07DX005 (ip), vehicle: Klucel (hydroxypropylcellulose) (HPC), evaluated on day 30) was 131 % of control [9 of 10 alive].
O=C(O)[C@H](Cc1ccccc1)N1C(=O)c2ccccc2C1=O was tested, and the survivor count (T/C endpoint: median tumor weight change, dose: 1000.0 mg/kg/injection, schedule: Q01DX001 (ip), vehicle: DMSO) was 0 of 10 on day 29.
In the case of COc1cccc2c1C(=O)c1c(O)c3c(c(O)c1C2=O)C[C@@](O)(C(C)=O)C[C@@H]3OC1CC(N(C)C)C(O)C(C)O1 (some centres undefined), the T/C (T/C endpoint: median tumor weight change, dose: 5.0 mg/kg/injection, schedule: Q01DX001 (ip), vehicle: water, evaluated on day 29) is reported as 66 and 69 % of control, the T/C (T/C endpoint: median tumor weight change, dose: 5.0 mg/kg/injection, schedule: Q01DX001 (ip), vehicle: water, evaluated on day 30) is reported as 113 % of control and the T/C (T/C endpoint: median tumor weight change, dose: 5.0 mg/kg/injection, schedule: Q01DX001 (ip), vehicle: water, evaluated on day 33) is reported as 130 % of control. The T/C (T/C endpoint: median tumor weight change, dose: 5.0 mg/kg/injection, schedule: Q01DX001 (ip), vehicle: water, evaluated on day 34) was 76 % of control, the T/C (T/C endpoint: median tumor weight change, dose: 10.0 mg/kg/injection, schedule: Q01DX001 (ip), vehicle: water, evaluated on day 29) was 91 [9 of 10 alive on day 29] and 92 % of control and the T/C (T/C endpoint: median tumor weight change, dose: 10.0 mg/kg/injection, schedule: Q01DX001 (ip), vehicle: water, evaluated on day 30) was 85 % of control. For the same compound, the T/C (T/C endpoint: median tumor weight change, dose: 10.0 mg/kg/injection, schedule: Q01DX001 (ip), vehicle: water, evaluated on day 33) was 96 % of control, the T/C (T/C endpoint: median tumor weight change, dose: 10.0 mg/kg/injection, schedule: Q01DX001 (ip), vehicle: water, evaluated on day 34) was 51 % of control and the T/C (T/C endpoint: median tumor weight change, dose: 20.0 mg/kg/injection, schedule: Q01DX001 (ip), vehicle: water, evaluated on day 29) was 38 and 44 % of control. The T/C (T/C endpoint: median tumor weight change, dose: 20.0 mg/kg/injection, schedule: Q01DX001 (ip), vehicle: water, evaluated on day 30) was 46 % of control, the T/C (T/C endpoint: median tumor weight change, dose: 20.0 mg/kg/injection, schedule: Q01DX001 (ip), vehicle: water, evaluated on day 33) was 38 % of control and the T/C (T/C endpoint: median tumor weight change, dose: 20.0 mg/kg/injection, schedule: Q01DX001 (ip), vehicle: water, evaluated on day 34) was 47 % of control. The T/C (T/C endpoint: median tumor weight change, dose: 40.0 mg/kg/injection, schedule: Q01DX001 (ip), vehicle: water, evaluated on day 29) was -32 [8 of 10 alive on day 29] and -19 % of control [9 of 10 alive on day 29], the T/C (T/C endpoint: median tumor weight change, dose: 40.0 mg/kg/injection, schedule: Q01DX001 (ip), vehicle: water, evaluated on day 30) was 10 % of control and the T/C (T/C endpoint: median tumor weight change, dose: 40.0 mg/kg/injection, schedule: Q01DX001 (ip), vehicle: water, evaluated on day 33) was -73 % of control. The T/C (T/C endpoint: median tumor weight change, dose: 40.0 mg/kg/injection, schedule: Q01DX001 (ip), vehicle: water, evaluated on day 34) was 1 % of control [7 of 10 alive on day 34] and the survivor count (T/C endpoint: median tumor weight change, dose: 80.0 mg/kg/injection, schedule: Q01DX001 (ip), vehicle: water) was 0 of 10 on day 29, 0 of 10 on day 33, 0 of 10 on day 34, 1 of 10 on day 30.
